“Also recorded” adds a separate entry of the source. At least one peptide structure holds a part that was inferred or is arguable (an end, a ring closure or a residue). Where a SMILES comes first, the peptide text is derived from it. Bridges are numbered along the chain shown (N, C = ends). [ ]: non-standard residue; d: D form. hArg = N=C(N)NCCCC[C@H](N)C(=O)O; Mpa = O=C(O)CCS
Legend:
M21 melanoma cells = assay: M21 melanoma cell attachment to vitronectin; assay type: cell-based; conditions: 35S-methionine labelled cells, vitronectin-coated plates
Method: M21 melanoma cells, which express high levels of the vitronectin receptor, were metabolically labelled with ^35 S-methionine, and then added to 24--well tissue culture plates coated with vitronectin. An incubation period of 1 hr at 37° C. was allowed for cell attachment, and this was followed by a wash to remove non-adherent cells. After washing, the adherent cells were solubilized, and the supernatants placed in a liquid scintillation counter. The fraction of cells remaining adherent was calculated by dividing the cpm in the solubilized supernatants by the cpm in the total number of cells added to each well. The effects of purifed snake venom peptides and synthetic cyclic peptides on cell adhesion was determined by including them with the M21 cells during the incubation period.
M21 melanoma cells were labelled with ^35 S-methionine, and then added to vitronectin-coated plates in the presence of the indicated concentrations of purified snake venom peptides. Cell attachment was measured by solubilizing the cells remaining after an incubation and wash, as described in Section C, on page 40.

The chains behind the UniProt entries cited, without tags or fusion partners. Residues count along the entry.
UniProt P05106, 27-788: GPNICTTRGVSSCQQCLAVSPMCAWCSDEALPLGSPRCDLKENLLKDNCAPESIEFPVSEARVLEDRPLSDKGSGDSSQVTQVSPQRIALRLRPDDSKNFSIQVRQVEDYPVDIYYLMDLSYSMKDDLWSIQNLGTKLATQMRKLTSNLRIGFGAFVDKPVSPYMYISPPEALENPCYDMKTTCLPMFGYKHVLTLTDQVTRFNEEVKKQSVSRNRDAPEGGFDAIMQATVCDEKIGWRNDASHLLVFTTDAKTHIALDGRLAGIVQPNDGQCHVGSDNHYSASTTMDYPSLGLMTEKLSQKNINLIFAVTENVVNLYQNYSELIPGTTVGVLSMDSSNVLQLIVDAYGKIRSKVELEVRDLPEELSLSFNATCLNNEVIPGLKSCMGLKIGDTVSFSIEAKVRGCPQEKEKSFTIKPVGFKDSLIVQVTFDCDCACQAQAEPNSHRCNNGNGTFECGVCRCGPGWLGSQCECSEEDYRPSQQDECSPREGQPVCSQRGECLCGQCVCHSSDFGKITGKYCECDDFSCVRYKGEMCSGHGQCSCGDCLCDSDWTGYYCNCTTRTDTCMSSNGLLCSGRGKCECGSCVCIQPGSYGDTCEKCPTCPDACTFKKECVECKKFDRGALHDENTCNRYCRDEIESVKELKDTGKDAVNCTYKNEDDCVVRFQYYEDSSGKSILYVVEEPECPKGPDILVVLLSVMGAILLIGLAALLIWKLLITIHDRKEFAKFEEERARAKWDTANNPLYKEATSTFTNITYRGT
UniProt P08514, 32-887 limits assumed: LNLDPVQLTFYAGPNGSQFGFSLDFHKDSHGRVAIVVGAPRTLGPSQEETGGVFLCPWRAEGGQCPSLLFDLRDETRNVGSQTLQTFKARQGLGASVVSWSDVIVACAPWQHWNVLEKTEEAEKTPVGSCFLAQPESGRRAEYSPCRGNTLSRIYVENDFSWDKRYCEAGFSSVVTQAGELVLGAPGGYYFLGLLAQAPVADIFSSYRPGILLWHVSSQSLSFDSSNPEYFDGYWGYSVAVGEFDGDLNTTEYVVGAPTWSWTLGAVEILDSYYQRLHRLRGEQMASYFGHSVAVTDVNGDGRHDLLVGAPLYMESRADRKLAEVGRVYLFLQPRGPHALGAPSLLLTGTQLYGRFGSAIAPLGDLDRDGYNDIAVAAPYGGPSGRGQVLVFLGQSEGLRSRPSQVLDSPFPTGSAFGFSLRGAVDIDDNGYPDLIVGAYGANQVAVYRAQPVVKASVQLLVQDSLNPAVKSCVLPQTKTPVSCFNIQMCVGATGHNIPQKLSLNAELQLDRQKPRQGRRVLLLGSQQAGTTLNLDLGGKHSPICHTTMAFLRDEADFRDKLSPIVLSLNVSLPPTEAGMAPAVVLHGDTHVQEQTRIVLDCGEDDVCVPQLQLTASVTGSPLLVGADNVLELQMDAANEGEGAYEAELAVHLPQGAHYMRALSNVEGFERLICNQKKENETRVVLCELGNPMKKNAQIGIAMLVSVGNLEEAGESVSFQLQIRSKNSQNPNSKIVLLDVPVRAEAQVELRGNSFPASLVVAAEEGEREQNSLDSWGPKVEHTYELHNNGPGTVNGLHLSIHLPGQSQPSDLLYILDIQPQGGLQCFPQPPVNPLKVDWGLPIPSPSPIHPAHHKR
UniProt P08514, 891-1039 partner limits assumed: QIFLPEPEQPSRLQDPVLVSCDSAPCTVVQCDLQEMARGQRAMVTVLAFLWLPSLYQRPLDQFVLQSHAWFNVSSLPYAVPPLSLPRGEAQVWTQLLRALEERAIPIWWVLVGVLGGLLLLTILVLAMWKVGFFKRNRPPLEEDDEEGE

GP IIb-IIIa = target: T1, GP IIb-IIIa (Homo sapiens, UniProt P05106+P08514); assay: Fibrinogen/GP IIb-IIIa plate binding assay
T1 construct: Purified platelet GP IIb-IIIa receptor was prepared as described by Fitzgerald, L. A., et al; from tissue; host or cells: platelets
Method: In the assay, GP IIb-IIIa, prepared in purified form, for example as described by Fitzgerald, L. A., et al., Anal Biochem (1985) 151:169-177, incorporated herein by reference, is coated onto a solid support such as beads, test tubes, or microtiter plates. The coated support is then contacted with fibrinogen and with the test material and incubated for a sufficient time to permit maximal binding of fibrinogen to the immobilized GP IIb-IIIa. Fibrinogen is typically provided at a concentration of about 5-50 nM and the test material can, if desired, be added at a series of dilutions. Typical incubations are 2-4 hr at 35° C., the time and temperature being interdependent.
After incubation, the solution containing the fibrinogen and test material is removed and the level of binding of fibrinogen measured by quantitating bound fibrinogen to GP IIb-IIIa. […]
In this case, percent inhibition may be calculated using the amount of Fg bound in the control as representing the basis, so that [formula] […]
The corresponding ligands (fibrinogen, von Willebrand Factor, or vitronectin) were labeled with ^125 I or conjugated to biotin using commercially available re-agents and standard protocols. […] After incubation, the wells are aspirated to dryness and bound ligand is quantitated. […]

Compound | inhibition of M21 melanoma cell attachment to vitronectin (in words) (M21 melanoma cells) | inhibition of binding of fibrinogen to GP IIb-IIIa (in words) (GP IIb-IIIa)
N=C(N)NCCCC[C@@H]1NC(=O)CCSSC[C@@H](C(N)=O)NC(=O)[C@@H]2CCCN2C(=O)[C@H](Cc2c[nH]c3ccccc23)NC(=O)[C@H](CC(=O)O)NC(=O)CNC1=O [#60] ([Mpa][hArg]GDWPC-NH2; disulfide 1-7) | relatively less effective | 
N=C(N)NCCC[C@H](N)C(=O)NCC(=O)N[C@@H](CC(=O)O)C(=O)N[C@@H](CO)C(=O)O [RGDS, reference compound] | ability; also recorded: potent inhibitors of cell attachment | 
NCCCC[C@H](N)C(=O)NCC(=O)N[C@@H](CC(=O)O)C(=O)N[C@@H](Cc1c[nH]c2ccccc12)C(N)=O [KGDW-NH2, reference compound] (H-KGDW-NH2) |  | much less potent than cyclic GCGKGDWPCA-NH2
